Where a name gives a salt, the structure may show the parent alone.
assay: Particle size distribution by laser diffraction (Malvern apparatus); assay type: physicochemical; conditions: volume diameter of 10% of the particles, fumarate dihydrate
Protocol: (§1) The particle size was determined by laser diffraction using a Malvern apparatus. The parameters taken into consideration were the VD in microns of 5%, 10%, 50%, and 90% of the particles expressed as d(v,0.05), d(v,0.1), d(v, 0.5), and d(v, 0.9), respectively, which correspond to the mass diameter assuming a size independent density for the particles. The Specific Surface Area (SSA) was determined by BET nitrogen adsorption using a Coulter SA3100 apparatus as a mean of three determinations.
(§2) Different batches of formoterol fumarate dihydrate were milled in a jet mill apparatus at different operating conditions in order to obtain different particle size distribution. The micronized batches were characterised in terms of particle size distribution and Specific Surface Area as reported in Example 1.

For `COc1ccc(CC(C)NCC(O)c2ccc(O)c(NC=O)c2)cc1` (stereo not shown) [formoterol fumarate dihydrate batch 1, formoterol fumarate dihydrate], which “Particle size d (v, 0.1)” value is on record?
Its value is 1.41 μm.

For `COc1ccc(CC(C)NCC(O)c2ccc(O)c(NC=O)c2)cc1` (stereo not shown) [formoterol fumarate dihydrate batch 2, formoterol fumarate dihydrate], which “Particle size d (v, 0.1)” value is on record?
Its value is 1.68 μm.

For `COc1ccc(CC(C)NCC(O)c2ccc(O)c(NC=O)c2)cc1` (stereo not shown) [formoterol fumarate dihydrate batch 3, formoterol fumarate dihydrate], which “Particle size d (v, 0.1)” value is on record?
Its value is 1.66 μm.

With `COc1ccc(CC(C)NCC(O)c2ccc(O)c(NC=O)c2)cc1` (stereo not shown) [formoterol fumarate dihydrate batch 4, formoterol fumarate dihydrate] as the compound, how does the “Particle size d (v, 0.1)” value read?
The value was 0.61 μm.

For `COc1ccc(CC(C)NCC(O)c2ccc(O)c(NC=O)c2)cc1` (stereo not shown) [formoterol fumarate dihydrate batch 5, formoterol fumarate dihydrate], which “Particle size d (v, 0.1)” value is on record?
Its value is 0.60 μm.

same assay, conditions: volume diameter of 50% of the particles, fumarate dihydrate

Which “Particle size d (v, 0.5)” value does the source give for `COc1ccc(CC(C)NCC(O)c2ccc(O)c(NC=O)c2)cc1` (stereo not shown) [formoterol fumarate dihydrate batch 1, formoterol fumarate dihydrate] here?
Its value is 2.58 μm.

Which “Particle size d (v, 0.5)” value does the source give for `COc1ccc(CC(C)NCC(O)c2ccc(O)c(NC=O)c2)cc1` (stereo not shown) [formoterol fumarate dihydrate batch 2, formoterol fumarate dihydrate] here?
Its value is 2.93 μm.

With `COc1ccc(CC(C)NCC(O)c2ccc(O)c(NC=O)c2)cc1` (stereo not shown) [formoterol fumarate dihydrate batch 3, formoterol fumarate dihydrate] as the compound, how does the “Particle size d (v, 0.5)” value read?
The value was 2.90 μm.

For `COc1ccc(CC(C)NCC(O)c2ccc(O)c(NC=O)c2)cc1` (stereo not shown) [formoterol fumarate dihydrate batch 4, formoterol fumarate dihydrate], which “Particle size d (v, 0.5)” value is on record?
The value was 2.09 μm.

Which “Particle size d (v, 0.5)” value does the source give for `COc1ccc(CC(C)NCC(O)c2ccc(O)c(NC=O)c2)cc1` (stereo not shown) [formoterol fumarate dihydrate batch 5, formoterol fumarate dihydrate] here?
The value was 2.27 μm.

same assay, conditions: volume diameter of 90% of the particles, fumarate dihydrate

For `COc1ccc(CC(C)NCC(O)c2ccc(O)c(NC=O)c2)cc1` (stereo not shown) [formoterol fumarate dihydrate batch 1, formoterol fumarate dihydrate], which “Particle size d (v, 0.9)” value is on record?
The value was 4.60 μm.

For `COc1ccc(CC(C)NCC(O)c2ccc(O)c(NC=O)c2)cc1` (stereo not shown) [formoterol fumarate dihydrate batch 2, formoterol fumarate dihydrate], which “Particle size d (v, 0.9)” value is on record?
Its value is 5.08 μm.

For `COc1ccc(CC(C)NCC(O)c2ccc(O)c(NC=O)c2)cc1` (stereo not shown) [formoterol fumarate dihydrate batch 3, formoterol fumarate dihydrate], which “Particle size d (v, 0.9)” value is on record?
Its value is 5.02 μm.

Which “Particle size d (v, 0.9)” value does the source give for `COc1ccc(CC(C)NCC(O)c2ccc(O)c(NC=O)c2)cc1` (stereo not shown) [formoterol fumarate dihydrate batch 4, formoterol fumarate dihydrate] here?
The value was 5.28 μm.

With `COc1ccc(CC(C)NCC(O)c2ccc(O)c(NC=O)c2)cc1` (stereo not shown) [formoterol fumarate dihydrate batch 5, formoterol fumarate dihydrate] as the compound, how does the “Particle size d (v, 0.9)” value read?
Its value is 5.14 μm.

assay: Specific Surface Area by BET nitrogen adsorption (Coulter SA3100); assay type: physicochemical; conditions: mean of three determinations, fumarate dihydrate
Protocol: as §1, §2

For `COc1ccc(CC(C)NCC(O)c2ccc(O)c(NC=O)c2)cc1` (stereo not shown) [formoterol fumarate dihydrate batch 1, formoterol fumarate dihydrate], which “SSA (Specific Surface Area)” value is on record?
The value was 5.73 m^2/g.

With `COc1ccc(CC(C)NCC(O)c2ccc(O)c(NC=O)c2)cc1` (stereo not shown) [formoterol fumarate dihydrate batch 2, formoterol fumarate dihydrate] as the compound, how does the “SSA (Specific Surface Area)” value read?
The value was 5.82 m^2/g.

With `COc1ccc(CC(C)NCC(O)c2ccc(O)c(NC=O)c2)cc1` (stereo not shown) [formoterol fumarate dihydrate batch 3, formoterol fumarate dihydrate] as the compound, how does the “SSA (Specific Surface Area)” value read?
Its value is 5.54 m^2/g.

Which “SSA (Specific Surface Area)” value does the source give for `COc1ccc(CC(C)NCC(O)c2ccc(O)c(NC=O)c2)cc1` (stereo not shown) [formoterol fumarate dihydrate batch 5, formoterol fumarate dihydrate] here?
Its value is 7.90 m^2/g.

— patent US20100055192A1, “MICRONIZED PARTICLES OF LOW-DOSAGE STRENGTH ACTIVE AGENTS FOR POWDER FORMULATIONS FOR INHALATION” (Chiesi Farmaceutici S.p.A., priority 2007, published 2010)
